# Measurements published in PubChem BioAssay AID651965 (National Center for Advancing Translational Sciences (NCATS), 2013).
# Amino acid sequences for entries named in this document (tags omitted).
# UniProt P80244, whole entry: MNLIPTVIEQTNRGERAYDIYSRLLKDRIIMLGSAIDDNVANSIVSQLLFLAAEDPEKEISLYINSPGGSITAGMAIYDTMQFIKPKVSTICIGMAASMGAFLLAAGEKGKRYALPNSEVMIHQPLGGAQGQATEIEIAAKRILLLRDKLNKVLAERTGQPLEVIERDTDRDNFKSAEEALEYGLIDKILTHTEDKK
# Screen size: about 340,000 compounds; about 6,400 (1.9%) were called active. All entries are inconclusive by the source's own rule. Clear calls are listed elsewhere. Calls come from the whole dose curve; as a rule, active = well fitted falling curve with a large enough effect; inconclusive = small, poorly fitted or top-dose-only effect; inactive = no such curve, though single readings can be large or run the other way. Some results for these compounds are left out of this collection, so the calls shown say nothing about other tests.
# Target: ATP-dependent Clp protease proteolytic subunit (Bacillus subtilis (strain 168)) (UniProt P80244)
# Experiment: qHTS Assay for Activators of ClpP; note: the source files actives as falling curves though it sought activators and does not explain the sign; nearly all actives have a fitted effect of over 65% in size
# Settings: purified B. subtilis ClpP, FRET peptide cleavage, 20 min
# Potency is the fitted concentration of half-maximal effect.
row,Structure (SMILES),Potency
1,CCN1CCCC(OC(=O)C2(O)c3ccccc3C=Cc3ccccc32)C1 (configuration not stated),inconclusive: 31.6 µM
2,COc1ccc(Cl)cc1C(=O)NCC1(N(C)C)CCCCC1,inconclusive: 31.6 µM
